Source: PubChem BioAssay AID743454 (Peter MacCallum Cancer Centre, 2014)
Screen: 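Search for knock-downs that restore vorinostat killing in resistant colon cancer cells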 (primary screen). Cell system: human HCT116-VR colon cancer cells, selected for vorinostat resistance. Reagents: siRNA pool against human genes, 40 nM siRNA pool. Duration: vorinostat for 24 h, read-out about 72 h after transfection. Conditions: vorinostat at 2.5 µM final. Read-out: 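Cell viability by CellTiter-Fluor and caspase 3/7 activity by luminescence, each scaled to mock wells per plate, duplicates averaged, then robust z-scored over all plates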. Scale: viability robust z-score: higher = more viable cells than screen typical; caspase robust z-score: higher = more caspase 3/7 activity than screen typical. Rule for the call: 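Hits are knock-downs in viability class RV1/RV2 or caspase class CA1/CA2, excluding ones that killed cells in the no-drug cell-count arm; hits then retested with single siRNAs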.
This is a random part of about 18,000 reagents tested. In the full data, 450 (2.5%) are marked active. 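Single biological run; no consistent viability z cut-off exists, so the class columns, not z-scores, define the calls.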

Gene,viability hit class,caspase hit class,viability robust z-score,caspase robust z-score,Outcome
LIX1L (limb and CNS expressed 1 like),no change,no change,0.7,-1.16,inactive
SMYD3 (SET and MYND domain containing 3),no change,no change,0.6,1.52,inactive
ZNF608 (zinc finger protein 608),no change,no change,-1.18,1.19,inactive
FERMT1 (FERM domain containing kindlin 1),no change,no change,0.42,0.62,inactive
PGK2 (phosphoglycerate kinase 2),no change,no change,1.21,-0.29,inactive
MS4A3 (membrane spanning 4-domains A3),no change,no change,-0.2,-0.72,inactive
"POLG2 (DNA polymerase gamma 2, accessory subunit)",no change,no change,-1.62,-0.4,inactive
GPR137 (G protein-coupled receptor 137),no change,no change,0.66,0.34,inactive
DSP (desmoplakin),no change,no change,1.27,0,inactive
SH3BP5 (SH3 domain binding protein 5),no change,no change,1.03,-0.78,inactive
SNX6 (sorting nexin 6),no change,no change,-0.92,-0.35,inactive
H2BC4 (H2B clustered histone 4),no change,no change,0.16,0.2,inactive
WNT4 (Wnt family member 4),no change,no change,-1.01,1.82,inactive

2 entries from above, limited to “viability robust z-score”.
LIX1L (limb and CNS expressed 1 like) = 0.7
SMYD3 (SET and MYND domain containing 3) = 0.6

More records:
Gene,viability hit class,caspase hit class,viability robust z-score,caspase robust z-score,Outcome
TIMP2 (TIMP metallopeptidase inhibitor 2),no change,no change,0.28,0.06,inactive
SERTAD1 (SERTA domain containing 1),no change,CA2 (caspase activation),-2.25,5.73,active
PCSK6 (proprotein convertase subtilisin/kexin type 6),no change,no change,0.41,-0.14,inactive
NSRP1 (nuclear speckle splicing regulatory protein 1),no change,no change,-1.77,2.06,inactive
TRAM1L1 (translocation associated membrane protein 1 like 1),no change,no change,-1.57,1.6,inactive
LRRTM4 (leucine rich repeat transmembrane neuronal 4),no change,no change,-0.13,0.64,inactive
WDR35 (WD repeat domain 35),no change,no change,0.99,-0.16,inactive
PIP4K2B (phosphatidylinositol-5-phosphate 4-kinase type 2 beta),no change,no change,0.15,0.35,inactive
PDHX (pyruvate dehydrogenase complex component X),no change,no change,-0.71,0.74,inactive
IBTK (inhibitor of Bruton tyrosine kinase),no change,no change,-0.53,-0.94,inactive
